Results are given in words; binding and its absence hold for the method and conditions named. Some entries that bind do so weakly or less than the wild type. Where a sequence is shown, tags or fusion partners need not be part of it.

In test [1] the target is T1, CROWDED NUCLEI 2 (CRWN2), yeast two-hybrid fusion (Arabidopsis thaliana) (UniProt Q9SAF6).
T1 sequence: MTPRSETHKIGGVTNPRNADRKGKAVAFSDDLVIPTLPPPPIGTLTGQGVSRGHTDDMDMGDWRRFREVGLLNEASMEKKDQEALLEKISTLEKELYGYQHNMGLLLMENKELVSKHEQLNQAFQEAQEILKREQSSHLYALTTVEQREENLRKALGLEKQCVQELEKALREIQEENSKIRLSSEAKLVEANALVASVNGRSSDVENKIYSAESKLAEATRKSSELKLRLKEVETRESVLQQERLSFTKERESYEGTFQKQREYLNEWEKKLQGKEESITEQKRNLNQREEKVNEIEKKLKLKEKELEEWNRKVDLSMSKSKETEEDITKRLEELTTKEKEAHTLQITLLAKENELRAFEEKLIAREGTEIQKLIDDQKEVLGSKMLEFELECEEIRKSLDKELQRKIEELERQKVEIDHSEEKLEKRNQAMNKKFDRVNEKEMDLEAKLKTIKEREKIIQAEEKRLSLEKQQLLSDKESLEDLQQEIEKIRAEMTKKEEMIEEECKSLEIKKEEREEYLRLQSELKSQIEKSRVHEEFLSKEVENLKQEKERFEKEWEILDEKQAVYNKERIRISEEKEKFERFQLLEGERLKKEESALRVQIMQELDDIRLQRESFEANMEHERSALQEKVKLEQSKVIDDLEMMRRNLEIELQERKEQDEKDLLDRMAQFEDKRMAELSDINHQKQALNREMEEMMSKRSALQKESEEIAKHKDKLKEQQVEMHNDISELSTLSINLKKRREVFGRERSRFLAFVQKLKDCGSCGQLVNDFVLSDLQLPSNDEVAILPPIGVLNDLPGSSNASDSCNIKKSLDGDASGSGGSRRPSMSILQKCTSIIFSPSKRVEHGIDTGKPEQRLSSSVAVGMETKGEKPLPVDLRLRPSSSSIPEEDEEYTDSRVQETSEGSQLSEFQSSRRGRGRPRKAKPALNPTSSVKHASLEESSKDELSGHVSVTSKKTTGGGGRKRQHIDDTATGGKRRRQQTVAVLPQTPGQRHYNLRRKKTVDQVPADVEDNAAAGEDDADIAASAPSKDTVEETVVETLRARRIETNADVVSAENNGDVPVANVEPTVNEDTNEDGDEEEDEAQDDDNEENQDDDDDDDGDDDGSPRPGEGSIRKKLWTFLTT
Briefly: two-hybrid.

Test [2] concerns the target T2, CROWDED NUCLEI 4 (CRWN4), yeast two-hybrid fusion (Arabidopsis thaliana) (UniProt Q9FLH0).
T2 sequence: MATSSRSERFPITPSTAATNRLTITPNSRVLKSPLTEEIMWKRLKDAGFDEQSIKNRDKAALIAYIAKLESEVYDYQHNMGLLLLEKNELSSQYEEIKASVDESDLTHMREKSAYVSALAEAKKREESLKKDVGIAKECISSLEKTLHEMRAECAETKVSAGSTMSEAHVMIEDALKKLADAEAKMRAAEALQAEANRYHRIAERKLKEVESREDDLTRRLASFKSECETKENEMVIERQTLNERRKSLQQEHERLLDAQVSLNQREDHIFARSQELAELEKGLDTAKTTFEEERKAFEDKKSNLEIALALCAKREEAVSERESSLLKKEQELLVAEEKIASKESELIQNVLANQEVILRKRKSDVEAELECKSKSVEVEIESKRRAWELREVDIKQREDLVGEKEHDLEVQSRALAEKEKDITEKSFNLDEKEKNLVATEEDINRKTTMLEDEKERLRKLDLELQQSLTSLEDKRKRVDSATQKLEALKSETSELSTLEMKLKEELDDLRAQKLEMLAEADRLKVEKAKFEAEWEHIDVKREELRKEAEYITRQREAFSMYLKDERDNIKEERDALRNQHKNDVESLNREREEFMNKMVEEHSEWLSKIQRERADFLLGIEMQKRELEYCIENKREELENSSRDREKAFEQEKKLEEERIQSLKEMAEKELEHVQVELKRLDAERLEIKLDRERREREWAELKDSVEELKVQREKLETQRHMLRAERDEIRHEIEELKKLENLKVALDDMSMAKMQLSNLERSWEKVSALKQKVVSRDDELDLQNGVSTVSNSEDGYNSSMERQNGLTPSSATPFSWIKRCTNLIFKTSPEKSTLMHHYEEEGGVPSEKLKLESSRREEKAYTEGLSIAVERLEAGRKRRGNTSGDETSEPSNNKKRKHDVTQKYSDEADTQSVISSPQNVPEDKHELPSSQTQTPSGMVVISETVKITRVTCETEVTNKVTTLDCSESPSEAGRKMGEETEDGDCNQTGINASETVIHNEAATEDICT
The experiment in a line: two-hybrid.

B1: KAKU4 N-terminus (1-310), yeast two-hybrid fusion (domain or fragment, UniProt Q949W6-2 1-310)
chain: MDSVSGYAAGAGQPRVGGKIVRPRRTAVVRTPCERPVQRSRDPPQQNPSWISRLVYKPASVIASGAGKFISSVVFSDSSSSSEEDEDSSSDIDGDEDVEKNNPDFTEEDLLSAQQPSIQRLSSKRVIEQLLLQETFAREEGDRLIDIIKARVVDHPSVPSAIETSHDDYGLTSDVNVGEMSNTAVMEARKWLEEKKSGSSSKYKATEDGAGSPVDVAKSYMRARLPWGSPAANNLDFRSPSSARVQGTPLPYSAGNFSSSKLKRKSGSNQSWNIQDEIRKVRAKATEEMLKSPSSVASLEPKYSPYVLAT
Take B1: the results for the binding entry in test [1] and in test [2] were “binds” and “no binding”, respectively.

B2: KAKU4 full-length protein (amino-acids 1-574), yeast two-hybrid fusion (protein, UniProt Q949W6-2 1-574)
chain: MDSVSGYAAGAGQPRVGGKIVRPRRTAVVRTPCERPVQRSRDPPQQNPSWISRLVYKPASVIASGAGKFISSVVFSDSSSSSEEDEDSSSDIDGDEDVEKNNPDFTEEDLLSAQQPSIQRLSSKRVIEQLLLQETFAREEGDRLIDIIKARVVDHPSVPSAIETSHDDYGLTSDVNVGEMSNTAVMEARKWLEEKKSGSSSKYKATEDGAGSPVDVAKSYMRARLPWGSPAANNLDFRSPSSARVQGTPLPYSAGNFSSSKLKRKSGSNQSWNIQDEIRKVRAKATEEMLKSPSSVASLEPKYSPYVLATDMLKGNASSLNADGAVRNEQSRALPNSAIPTSEHNQTTEANQAVKETGVLHTRSRGVGLEETFISTQGVKPSEDTNTAPQSGTAVDDFNDQDGDFIQPTSTIGNTTNAVLALGATLDPTGNSCIPKDVFETSKEADEIGASRHTSNGFPSSSPSSPAVMEGQPKPTPPEETKASQPIAEIHGDDMTVGNGSDGAINNESNDSHSSASNSSSTHEEEWLPGDQSLPNSNSASSSPGNTKVLAYSRRGRGRGRGRGRGGRGKGRAK
In the case of B2, the values for the binding result in test [1] and in test [2] were “binds” and “no binding”, respectively.

B3: KAKU4 C-terminus (311-574), yeast two-hybrid fusion (domain or fragment, UniProt Q949W6-2 311-574)
chain: DMLKGNASSLNADGAVRNEQSRALPNSAIPTSEHNQTTEANQAVKETGVLHTRSRGVGLEETFISTQGVKPSEDTNTAPQSGTAVDDFNDQDGDFIQPTSTIGNTTNAVLALGATLDPTGNSCIPKDVFETSKEADEIGASRHTSNGFPSSSPSSPAVMEGQPKPTPPEETKASQPIAEIHGDDMTVGNGSDGAINNESNDSHSSASNSSSTHEEEWLPGDQSLPNSNSASSSPGNTKVLAYSRRGRGRGRGRGRGGRGKGRAK
Regarding B3, the binding entry in test [1] and in test [2] was “no binding” in each case.

The record behind these values is article doi:10.1101/2021.03.20.435662.
